# Laboratory results: the supplement of paper PMC10849652
# Amino acid sequences for entries named in this document (tags omitted). A change or cut given only in a name is not applied to a line headed by its entry.
# UniProt Q86W33: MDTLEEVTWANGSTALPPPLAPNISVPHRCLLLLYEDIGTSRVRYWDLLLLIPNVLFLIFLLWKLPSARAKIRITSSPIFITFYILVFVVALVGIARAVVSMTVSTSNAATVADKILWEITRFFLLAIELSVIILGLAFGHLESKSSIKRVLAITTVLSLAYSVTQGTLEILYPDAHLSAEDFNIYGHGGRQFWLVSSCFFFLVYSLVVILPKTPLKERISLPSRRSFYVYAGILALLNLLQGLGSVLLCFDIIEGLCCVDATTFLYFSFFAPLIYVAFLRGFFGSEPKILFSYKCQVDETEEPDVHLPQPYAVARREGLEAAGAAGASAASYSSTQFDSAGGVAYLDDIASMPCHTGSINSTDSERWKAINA
# UniProt Q96SK2: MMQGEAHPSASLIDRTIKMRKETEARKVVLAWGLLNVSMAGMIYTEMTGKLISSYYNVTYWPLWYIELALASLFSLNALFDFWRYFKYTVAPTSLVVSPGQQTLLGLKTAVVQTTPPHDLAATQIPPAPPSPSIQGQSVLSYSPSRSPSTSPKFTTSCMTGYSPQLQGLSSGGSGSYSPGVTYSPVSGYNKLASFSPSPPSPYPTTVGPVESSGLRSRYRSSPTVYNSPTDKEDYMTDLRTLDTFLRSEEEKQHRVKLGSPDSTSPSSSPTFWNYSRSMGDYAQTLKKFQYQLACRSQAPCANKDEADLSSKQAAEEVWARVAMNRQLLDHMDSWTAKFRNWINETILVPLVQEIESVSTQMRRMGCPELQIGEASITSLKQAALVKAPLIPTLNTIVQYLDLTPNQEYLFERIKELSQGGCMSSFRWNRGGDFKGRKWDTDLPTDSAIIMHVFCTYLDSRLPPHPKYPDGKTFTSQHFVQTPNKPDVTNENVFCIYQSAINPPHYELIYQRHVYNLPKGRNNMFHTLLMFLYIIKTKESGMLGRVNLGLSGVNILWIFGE
# UniProt P41273, whole entry, looked up: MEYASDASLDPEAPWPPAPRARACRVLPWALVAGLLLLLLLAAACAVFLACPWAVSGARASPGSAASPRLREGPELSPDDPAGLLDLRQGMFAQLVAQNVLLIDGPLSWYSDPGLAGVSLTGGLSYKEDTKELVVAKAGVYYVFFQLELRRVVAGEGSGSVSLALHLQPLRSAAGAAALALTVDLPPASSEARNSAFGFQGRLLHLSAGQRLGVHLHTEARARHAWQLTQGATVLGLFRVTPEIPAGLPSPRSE
# UniProt Q5BJD5: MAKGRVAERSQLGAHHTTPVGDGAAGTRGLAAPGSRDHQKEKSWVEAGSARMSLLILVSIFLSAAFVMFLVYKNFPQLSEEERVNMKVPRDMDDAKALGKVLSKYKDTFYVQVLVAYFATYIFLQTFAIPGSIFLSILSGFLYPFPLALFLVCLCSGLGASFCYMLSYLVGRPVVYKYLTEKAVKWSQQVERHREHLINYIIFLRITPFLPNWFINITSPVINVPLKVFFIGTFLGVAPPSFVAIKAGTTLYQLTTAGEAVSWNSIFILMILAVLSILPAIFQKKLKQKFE
# UniProt Q8NCS4: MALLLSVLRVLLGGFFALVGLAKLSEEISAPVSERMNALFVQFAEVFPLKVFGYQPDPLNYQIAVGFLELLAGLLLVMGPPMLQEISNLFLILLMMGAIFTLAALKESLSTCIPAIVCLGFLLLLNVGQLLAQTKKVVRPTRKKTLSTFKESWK
# UniProt Q8N2U0: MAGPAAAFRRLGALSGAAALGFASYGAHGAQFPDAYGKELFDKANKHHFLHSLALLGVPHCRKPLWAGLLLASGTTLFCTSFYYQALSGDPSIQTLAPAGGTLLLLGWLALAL
# UniProt Q96HH6: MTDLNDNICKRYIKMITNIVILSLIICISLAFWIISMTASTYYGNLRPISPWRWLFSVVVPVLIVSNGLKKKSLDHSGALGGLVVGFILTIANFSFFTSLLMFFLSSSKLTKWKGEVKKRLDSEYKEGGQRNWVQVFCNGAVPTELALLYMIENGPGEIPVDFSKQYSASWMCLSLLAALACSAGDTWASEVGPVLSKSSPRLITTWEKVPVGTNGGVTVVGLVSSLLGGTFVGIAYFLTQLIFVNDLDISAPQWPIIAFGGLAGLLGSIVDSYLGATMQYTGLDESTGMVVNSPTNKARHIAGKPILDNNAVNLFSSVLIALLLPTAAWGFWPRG
# UniProt P62328: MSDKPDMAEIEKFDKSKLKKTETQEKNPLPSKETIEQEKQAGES
# UniProt Q9BXS4: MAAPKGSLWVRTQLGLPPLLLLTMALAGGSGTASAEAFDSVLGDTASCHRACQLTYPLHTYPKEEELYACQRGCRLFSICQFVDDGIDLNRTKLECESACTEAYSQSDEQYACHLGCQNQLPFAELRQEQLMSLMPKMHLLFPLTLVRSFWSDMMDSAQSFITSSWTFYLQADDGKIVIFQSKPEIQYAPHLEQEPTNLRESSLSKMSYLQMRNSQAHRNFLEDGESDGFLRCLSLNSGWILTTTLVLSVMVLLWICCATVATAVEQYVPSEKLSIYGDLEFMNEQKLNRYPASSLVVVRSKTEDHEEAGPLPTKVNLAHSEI
# UniProt Q9HBL0: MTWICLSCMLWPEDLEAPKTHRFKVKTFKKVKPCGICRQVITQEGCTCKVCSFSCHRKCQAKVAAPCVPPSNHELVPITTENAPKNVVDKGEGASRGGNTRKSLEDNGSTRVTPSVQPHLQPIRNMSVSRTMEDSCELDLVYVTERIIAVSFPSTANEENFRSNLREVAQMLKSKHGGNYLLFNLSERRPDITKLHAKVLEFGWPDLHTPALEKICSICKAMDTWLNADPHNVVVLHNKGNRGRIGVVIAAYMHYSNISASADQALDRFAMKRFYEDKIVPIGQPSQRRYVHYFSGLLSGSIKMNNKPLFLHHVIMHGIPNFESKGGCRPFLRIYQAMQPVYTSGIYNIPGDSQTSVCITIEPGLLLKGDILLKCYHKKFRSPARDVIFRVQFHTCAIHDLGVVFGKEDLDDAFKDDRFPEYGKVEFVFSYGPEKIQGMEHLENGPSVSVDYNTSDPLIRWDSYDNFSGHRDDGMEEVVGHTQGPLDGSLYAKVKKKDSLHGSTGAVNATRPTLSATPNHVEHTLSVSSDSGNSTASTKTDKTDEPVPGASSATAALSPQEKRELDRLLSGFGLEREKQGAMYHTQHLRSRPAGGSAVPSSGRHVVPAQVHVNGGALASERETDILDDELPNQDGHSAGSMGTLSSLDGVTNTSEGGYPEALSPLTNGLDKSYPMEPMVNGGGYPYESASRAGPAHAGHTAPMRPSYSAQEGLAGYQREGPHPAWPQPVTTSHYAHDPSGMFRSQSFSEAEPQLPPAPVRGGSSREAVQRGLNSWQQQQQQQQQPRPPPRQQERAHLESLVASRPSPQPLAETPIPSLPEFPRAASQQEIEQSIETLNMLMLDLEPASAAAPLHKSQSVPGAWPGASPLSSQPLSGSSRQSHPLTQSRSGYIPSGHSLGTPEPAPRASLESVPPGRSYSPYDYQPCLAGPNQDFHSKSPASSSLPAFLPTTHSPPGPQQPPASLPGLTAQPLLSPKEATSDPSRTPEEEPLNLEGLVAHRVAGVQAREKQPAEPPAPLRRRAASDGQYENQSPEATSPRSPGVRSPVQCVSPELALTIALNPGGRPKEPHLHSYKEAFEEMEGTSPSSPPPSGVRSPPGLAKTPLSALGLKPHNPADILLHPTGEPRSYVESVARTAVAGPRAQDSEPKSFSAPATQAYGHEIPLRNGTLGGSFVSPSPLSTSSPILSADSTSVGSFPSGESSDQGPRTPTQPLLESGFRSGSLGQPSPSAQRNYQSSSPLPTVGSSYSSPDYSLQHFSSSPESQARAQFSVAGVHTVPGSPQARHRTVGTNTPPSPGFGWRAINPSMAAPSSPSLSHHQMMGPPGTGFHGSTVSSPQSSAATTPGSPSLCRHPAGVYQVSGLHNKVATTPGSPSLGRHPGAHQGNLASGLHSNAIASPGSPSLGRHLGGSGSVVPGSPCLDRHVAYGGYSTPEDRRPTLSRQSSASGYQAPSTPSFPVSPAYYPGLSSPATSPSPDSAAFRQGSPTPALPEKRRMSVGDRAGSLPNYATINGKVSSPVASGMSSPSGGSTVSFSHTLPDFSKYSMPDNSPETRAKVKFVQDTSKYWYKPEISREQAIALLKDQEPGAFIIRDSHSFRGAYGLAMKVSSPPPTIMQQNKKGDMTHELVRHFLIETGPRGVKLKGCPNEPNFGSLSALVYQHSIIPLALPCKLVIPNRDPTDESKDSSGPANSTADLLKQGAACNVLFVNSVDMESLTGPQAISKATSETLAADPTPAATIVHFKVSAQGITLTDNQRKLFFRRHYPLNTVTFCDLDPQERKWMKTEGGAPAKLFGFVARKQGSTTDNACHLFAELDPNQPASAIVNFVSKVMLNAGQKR
# UniProt Q9HCJ0: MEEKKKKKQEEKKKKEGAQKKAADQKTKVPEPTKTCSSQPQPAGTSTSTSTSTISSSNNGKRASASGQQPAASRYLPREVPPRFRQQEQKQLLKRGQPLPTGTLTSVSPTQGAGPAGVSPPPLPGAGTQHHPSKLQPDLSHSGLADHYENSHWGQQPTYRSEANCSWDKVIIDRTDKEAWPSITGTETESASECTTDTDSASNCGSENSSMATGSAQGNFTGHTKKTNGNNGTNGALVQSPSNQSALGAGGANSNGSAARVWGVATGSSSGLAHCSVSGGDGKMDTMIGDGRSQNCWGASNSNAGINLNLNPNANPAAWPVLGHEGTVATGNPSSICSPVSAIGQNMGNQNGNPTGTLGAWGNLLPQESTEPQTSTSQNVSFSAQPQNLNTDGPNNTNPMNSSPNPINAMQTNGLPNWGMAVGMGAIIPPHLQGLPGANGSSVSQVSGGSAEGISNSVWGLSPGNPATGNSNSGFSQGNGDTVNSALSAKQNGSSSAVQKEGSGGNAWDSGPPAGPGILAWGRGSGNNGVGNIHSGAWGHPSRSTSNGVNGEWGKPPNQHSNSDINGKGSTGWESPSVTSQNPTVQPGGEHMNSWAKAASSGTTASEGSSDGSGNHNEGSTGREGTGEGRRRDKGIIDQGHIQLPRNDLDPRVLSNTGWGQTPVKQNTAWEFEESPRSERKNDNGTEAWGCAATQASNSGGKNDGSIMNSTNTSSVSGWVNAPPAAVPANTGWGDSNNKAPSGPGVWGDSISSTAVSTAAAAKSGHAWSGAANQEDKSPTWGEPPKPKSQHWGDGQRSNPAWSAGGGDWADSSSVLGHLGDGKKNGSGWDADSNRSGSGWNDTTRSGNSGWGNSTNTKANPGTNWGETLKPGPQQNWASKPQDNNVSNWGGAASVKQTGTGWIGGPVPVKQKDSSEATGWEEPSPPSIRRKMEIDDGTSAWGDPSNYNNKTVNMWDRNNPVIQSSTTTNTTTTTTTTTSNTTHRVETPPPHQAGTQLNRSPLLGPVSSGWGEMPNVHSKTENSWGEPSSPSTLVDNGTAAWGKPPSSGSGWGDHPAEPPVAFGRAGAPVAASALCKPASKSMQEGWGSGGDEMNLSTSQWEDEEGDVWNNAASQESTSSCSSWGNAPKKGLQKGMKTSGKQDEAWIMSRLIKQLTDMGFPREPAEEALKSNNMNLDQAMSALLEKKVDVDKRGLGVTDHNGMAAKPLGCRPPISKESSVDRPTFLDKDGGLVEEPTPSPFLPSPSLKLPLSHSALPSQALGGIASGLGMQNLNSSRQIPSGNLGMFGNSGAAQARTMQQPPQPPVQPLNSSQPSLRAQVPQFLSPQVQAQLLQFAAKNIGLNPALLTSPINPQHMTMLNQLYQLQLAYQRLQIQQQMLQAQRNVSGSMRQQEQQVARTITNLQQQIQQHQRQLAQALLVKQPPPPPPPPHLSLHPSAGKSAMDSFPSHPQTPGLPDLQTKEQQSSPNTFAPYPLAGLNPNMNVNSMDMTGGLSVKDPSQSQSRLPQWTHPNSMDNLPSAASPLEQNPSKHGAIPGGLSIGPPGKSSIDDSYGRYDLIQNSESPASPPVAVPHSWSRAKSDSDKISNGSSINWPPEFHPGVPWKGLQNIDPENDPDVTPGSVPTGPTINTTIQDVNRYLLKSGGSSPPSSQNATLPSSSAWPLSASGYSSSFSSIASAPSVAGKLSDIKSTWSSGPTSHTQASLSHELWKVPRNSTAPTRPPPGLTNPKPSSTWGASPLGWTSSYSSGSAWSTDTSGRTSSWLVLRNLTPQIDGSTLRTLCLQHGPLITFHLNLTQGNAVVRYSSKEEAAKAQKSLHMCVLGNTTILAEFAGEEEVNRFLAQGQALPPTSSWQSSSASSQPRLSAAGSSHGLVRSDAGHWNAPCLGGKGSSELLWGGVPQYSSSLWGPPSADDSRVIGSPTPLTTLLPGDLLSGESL
# UniProt Q13829: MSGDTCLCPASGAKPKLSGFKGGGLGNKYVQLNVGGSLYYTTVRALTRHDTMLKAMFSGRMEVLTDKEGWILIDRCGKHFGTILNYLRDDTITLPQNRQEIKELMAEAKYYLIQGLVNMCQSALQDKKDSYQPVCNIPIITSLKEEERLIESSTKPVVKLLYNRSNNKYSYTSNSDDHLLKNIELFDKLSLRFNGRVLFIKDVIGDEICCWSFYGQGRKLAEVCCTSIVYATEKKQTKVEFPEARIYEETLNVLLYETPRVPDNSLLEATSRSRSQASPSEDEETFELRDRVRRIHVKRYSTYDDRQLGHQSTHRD
# The list shows a part of the results.
# Tests used:
# Experiment in all cases: log2 fold change, soluble protein after heating vs DMSO (PISA); higher = thermal stabilisation; K562 lysate, 10 uM; active = over 0.2 and 3.5 SD of the protein, either way, in both replicates (recomputed)
# [1] = compound: C1=CC=C(C=C1)[C@H](COC2=CC3=C(C=C2)NC(=O)N3)NC(=O)C4=CC=CN(C4=O)CC5=CC(=C(C=C5)F)F
# Procedure, shortened: (§1)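 Soluble protein was defined as the supernatant remaining after 21,000xg for 90 min, following pooling of heated aliquots and adjustment to 0.5% NP-40 at 4°C. Before that, crude K562 extract at 1 mg/mL protein in PBS pH 7.4 with 1 mM MgCl2 was treated with 10 μM compound for 30 min and heated for 3 min across 48°C-58°C. Quantification used TMTpro 16plex LC-MS/MS with channel sums equalised, and values are log-two fold changes in thermal stability relative to solvent controls from duplicates.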
# [2] = compound: CC1=C(SC2=C1C(=N[C@H](C3=NN=C(N32)C)CC(=O)N)C4=CC=C(C=C4)Cl)C
# Procedure, shortened: as §1
# [3] = compound: Cc1sc2c(c1C)C(c1ccc(Cl)cc1)=N[C@@H](CC(=O)OC(C)(C)C)c1nnc(C)n1-2
# Procedure, shortened: as §1
# [4] = compound: c1ccc([C@@H]2C[C@H]2NC2CCNCC2)cc1
# Procedure, shortened: as §1
# [5] = compound: CC1=C2C(=CC=C1)N=C(N(C2=O)C3=CC=CC=C3C)CN4C=NC5=C(N=CN=C54)N
# Procedure, shortened: as §1
Target,log2 fold change [1],log2 fold change [2],log2 fold change [3],log2 fold change [4],log2 fold change [5]
TNIK isoform 5 (UniProt Q9UKE5),inactive: 0.008,inactive: -0.009,inactive: -0.089,inactive: -0.041,–
TPRA1 (UniProt Q86W33),–,–,inactive: -0.031,inactive: 0.064,–
TMEM209 (UniProt Q96SK2),inactive: -0.046,inactive: -0.087,inactive: -0.19,inactive: 0.058,–
TNFSF9 (UniProt P41273),–,–,–,inactive: -0.18,–
TMEM41B (UniProt Q5BJD5),inactive: -0.027,inactive: 0.141,inactive: 0.036,inactive: -0.008,–
TPRG1L (UniProt Q5T0D9),–,–,inactive: 0.041,inactive: 0.113,inactive: 0.106
TMEM35B (UniProt Q8NCS4),–,–,–,–,inactive: -0.246
TMEM256 (UniProt Q8N2U0),–,–,inactive: -0.074,–,inactive: 0.083
TNK2 isoform 3 (UniProt Q07912),inactive: -0.146,inactive: 0.295,–,inactive: 0.079,–
TMTC4 isoform 3 (UniProt Q5T4D3),–,–,inactive: -0.004,–,–
TMEM248 (UniProt Q9NWD8),–,–,inactive: 0.054,inactive: 0.06,inactive: -0.027
TMEM208 (UniProt Q9BTX3),inactive: -0.084,inactive: -0.004,inactive: -0.125,inactive: -0.157,–
TNNC1 (UniProt P63316),inactive: -1.67,inactive: 1.45,–,inactive: 1.68,–
TMEM19 (UniProt Q96HH6),–,–,–,–,inactive: -0.128
TNFAIP3 (UniProt P21580),inactive: 0.052,inactive: 0.05,inactive: 0.033,inactive: 0.06,–
TPM3 isoform 3 (UniProt P06753),–,–,inactive: -0.041,inactive: -0.266,inactive: -0.048
TPRN (UniProt Q4KMQ1),–,–,inactive: 0.141,–,–

Target,log2 fold change [1],log2 fold change [2],log2 fold change [3],log2 fold change [4],log2 fold change [5]
TMEM237 isoform 3 (UniProt Q96Q45),–,–,inactive: -0.052,inactive: -0.151,inactive: 0.126
TMEM189 (UniProt A5PLL7),inactive: 0.09,inactive: 0.083,inactive: 0.141,inactive: -0.051,–
TMEM268 isoform 3 (UniProt Q5VZI3),–,–,inactive: 0.042,inactive: -0.116,–
TPBG (UniProt Q13641),–,–,inactive: -0.278,–,inactive: 0.046
TMSB4X (UniProt P62328),active: -0.935,inactive: 0.434,–,inactive: 0.176,–
TPD52L2 isoform 3 (UniProt O43399),inactive: -0.058,inactive: 0.135,–,inactive: 0.098,–
TPT1 (UniProt E9PJF7),inactive: 0.177,inactive: -0.413,–,inactive: 0.239,–
TMEM59 (UniProt Q9BXS4),–,–,–,inactive: 0.05,–
TMEM267 (UniProt Q0VDI3),inactive: 0.007,inactive: -0.103,–,inactive: 0.045,–
TMEM44 (UniProt Q2T9K0),inactive: -0.003,inactive: -0.136,inactive: -0.324,–,–
TMEM98 (UniProt Q9Y2Y6),–,–,–,inactive: -0.008,–
TNS1 (UniProt Q9HBL0),inactive: -0.072,inactive: -0.081,–,inactive: -0.056,–
TNKS (UniProt O95271),–,–,inactive: 0.039,inactive: -0.035,inactive: 0.023
TNRC6C isoform 2 (UniProt Q9HCJ0),inactive: 0.249,inactive: -0.029,inactive: -0.099,inactive: 0.069,–
TNFAIP1 (UniProt Q13829),inactive: -0.125,inactive: 0.18,–,inactive: 0.159,–
TNNC2 (UniProt P02585),–,–,inactive: -0.02,inactive: 0.043,inactive: -0.017
